Experiment: Fmoc solid-phase peptide synthesis; Rink amide MBHA; TBTU
Conditions: whole synthesis

## CTCFTYKDKECVYYCHLDIIWINTPEQTVPYGLSNYRESLRGKR-NH2
  final LC-MS purity: approximately 95% purity
